Assay results published in PMC7334503.

By UniProt entry, the sequences of proteins in these tests, tags left out.
UniProt P38420: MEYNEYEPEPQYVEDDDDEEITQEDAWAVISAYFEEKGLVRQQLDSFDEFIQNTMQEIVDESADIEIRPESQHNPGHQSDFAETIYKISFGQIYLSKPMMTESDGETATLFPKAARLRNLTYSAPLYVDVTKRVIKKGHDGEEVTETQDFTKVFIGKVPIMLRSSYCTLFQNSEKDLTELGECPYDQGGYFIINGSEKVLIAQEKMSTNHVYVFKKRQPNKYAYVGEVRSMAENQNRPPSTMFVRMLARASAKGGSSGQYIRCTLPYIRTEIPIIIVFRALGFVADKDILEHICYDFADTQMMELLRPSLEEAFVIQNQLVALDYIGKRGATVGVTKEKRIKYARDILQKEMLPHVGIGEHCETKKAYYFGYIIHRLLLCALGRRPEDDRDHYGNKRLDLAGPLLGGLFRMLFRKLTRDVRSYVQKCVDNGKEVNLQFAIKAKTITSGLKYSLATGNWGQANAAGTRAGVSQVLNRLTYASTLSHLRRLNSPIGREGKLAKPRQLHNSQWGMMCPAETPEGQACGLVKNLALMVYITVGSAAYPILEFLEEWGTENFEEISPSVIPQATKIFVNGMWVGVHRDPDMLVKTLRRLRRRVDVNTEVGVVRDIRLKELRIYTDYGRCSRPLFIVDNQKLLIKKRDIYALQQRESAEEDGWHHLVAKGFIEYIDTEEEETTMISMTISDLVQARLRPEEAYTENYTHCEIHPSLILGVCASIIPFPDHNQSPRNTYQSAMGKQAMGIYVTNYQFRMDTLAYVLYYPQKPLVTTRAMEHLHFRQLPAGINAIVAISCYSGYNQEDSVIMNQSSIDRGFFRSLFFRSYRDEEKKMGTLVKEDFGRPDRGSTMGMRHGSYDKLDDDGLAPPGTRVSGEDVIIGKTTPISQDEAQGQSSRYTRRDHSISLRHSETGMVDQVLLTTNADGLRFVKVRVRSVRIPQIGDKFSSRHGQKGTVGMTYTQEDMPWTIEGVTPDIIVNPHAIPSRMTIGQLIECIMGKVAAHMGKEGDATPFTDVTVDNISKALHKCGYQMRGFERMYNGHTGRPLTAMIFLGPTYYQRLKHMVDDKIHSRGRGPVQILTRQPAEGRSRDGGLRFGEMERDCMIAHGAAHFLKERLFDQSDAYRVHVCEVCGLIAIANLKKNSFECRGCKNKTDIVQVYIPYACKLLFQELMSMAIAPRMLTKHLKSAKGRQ
UniProt P18616: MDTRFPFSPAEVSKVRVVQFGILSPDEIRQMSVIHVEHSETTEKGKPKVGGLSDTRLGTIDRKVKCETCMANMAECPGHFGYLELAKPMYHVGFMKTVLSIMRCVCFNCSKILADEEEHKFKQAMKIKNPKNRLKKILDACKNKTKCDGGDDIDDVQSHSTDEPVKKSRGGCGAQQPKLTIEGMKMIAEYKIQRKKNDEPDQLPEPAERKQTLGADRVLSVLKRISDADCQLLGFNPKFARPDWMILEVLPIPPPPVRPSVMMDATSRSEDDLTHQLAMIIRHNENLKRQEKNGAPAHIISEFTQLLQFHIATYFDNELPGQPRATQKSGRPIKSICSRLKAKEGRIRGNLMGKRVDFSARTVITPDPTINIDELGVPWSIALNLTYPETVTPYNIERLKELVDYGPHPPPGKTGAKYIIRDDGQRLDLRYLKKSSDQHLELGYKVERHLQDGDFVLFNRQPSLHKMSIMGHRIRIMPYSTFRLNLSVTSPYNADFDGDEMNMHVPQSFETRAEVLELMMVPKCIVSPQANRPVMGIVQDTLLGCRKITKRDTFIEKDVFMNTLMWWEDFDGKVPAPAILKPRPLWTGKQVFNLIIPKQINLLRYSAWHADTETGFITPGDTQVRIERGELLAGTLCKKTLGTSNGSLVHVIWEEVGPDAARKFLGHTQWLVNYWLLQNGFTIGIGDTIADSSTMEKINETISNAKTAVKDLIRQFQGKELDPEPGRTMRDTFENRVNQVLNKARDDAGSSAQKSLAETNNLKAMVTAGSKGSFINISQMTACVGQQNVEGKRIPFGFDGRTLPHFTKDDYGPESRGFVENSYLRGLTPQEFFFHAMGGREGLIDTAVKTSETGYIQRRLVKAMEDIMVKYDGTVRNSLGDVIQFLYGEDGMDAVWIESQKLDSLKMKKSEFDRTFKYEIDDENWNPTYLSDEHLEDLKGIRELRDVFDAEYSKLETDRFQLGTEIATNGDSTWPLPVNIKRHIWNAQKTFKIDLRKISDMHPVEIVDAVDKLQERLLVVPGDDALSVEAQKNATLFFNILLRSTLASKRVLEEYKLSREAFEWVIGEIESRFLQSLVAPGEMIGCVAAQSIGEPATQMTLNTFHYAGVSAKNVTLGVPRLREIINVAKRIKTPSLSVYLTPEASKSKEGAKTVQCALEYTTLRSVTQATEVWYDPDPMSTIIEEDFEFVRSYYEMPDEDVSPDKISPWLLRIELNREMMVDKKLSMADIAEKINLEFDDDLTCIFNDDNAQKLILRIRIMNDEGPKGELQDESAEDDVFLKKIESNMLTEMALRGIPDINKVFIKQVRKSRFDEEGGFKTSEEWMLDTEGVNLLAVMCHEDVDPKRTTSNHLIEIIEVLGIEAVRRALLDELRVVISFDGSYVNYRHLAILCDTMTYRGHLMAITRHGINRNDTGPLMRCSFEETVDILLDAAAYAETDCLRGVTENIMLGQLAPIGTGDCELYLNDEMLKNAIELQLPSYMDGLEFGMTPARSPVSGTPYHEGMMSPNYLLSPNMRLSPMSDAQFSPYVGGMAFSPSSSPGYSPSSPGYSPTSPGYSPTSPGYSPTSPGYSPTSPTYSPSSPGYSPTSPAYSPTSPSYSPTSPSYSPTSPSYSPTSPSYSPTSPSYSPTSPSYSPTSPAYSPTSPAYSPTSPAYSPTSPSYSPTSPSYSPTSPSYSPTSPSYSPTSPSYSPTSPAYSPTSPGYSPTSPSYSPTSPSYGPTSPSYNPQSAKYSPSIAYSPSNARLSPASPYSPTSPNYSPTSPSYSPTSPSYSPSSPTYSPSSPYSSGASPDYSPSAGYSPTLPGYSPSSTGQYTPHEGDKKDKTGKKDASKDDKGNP

T1: SDG26-GFP (Arabidopsis thaliana) (UniProt Q84WW6)
T1 sequence: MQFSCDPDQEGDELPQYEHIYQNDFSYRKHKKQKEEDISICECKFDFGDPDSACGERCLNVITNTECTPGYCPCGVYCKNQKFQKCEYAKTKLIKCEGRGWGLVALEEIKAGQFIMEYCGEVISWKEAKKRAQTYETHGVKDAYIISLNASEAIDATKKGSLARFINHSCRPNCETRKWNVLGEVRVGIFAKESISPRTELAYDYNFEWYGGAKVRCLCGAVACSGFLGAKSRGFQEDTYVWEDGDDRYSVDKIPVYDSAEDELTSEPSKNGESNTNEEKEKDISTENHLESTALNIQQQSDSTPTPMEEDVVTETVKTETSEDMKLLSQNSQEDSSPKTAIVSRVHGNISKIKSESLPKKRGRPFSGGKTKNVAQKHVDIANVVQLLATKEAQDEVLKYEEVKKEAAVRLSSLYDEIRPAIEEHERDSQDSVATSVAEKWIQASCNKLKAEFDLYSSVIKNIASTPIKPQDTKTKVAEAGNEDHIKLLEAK

B1: FCA (protein, UniProt O04425 1-747)
chain: MNGPPDRVDFKPMGPHHGGSFRPMGFAYDDGFRPMGPNGGVGGEGTRSIVGARYNYPAKYPPSESPDRRRFIGKAMESDYSVRPTTPPVQQPLSGQKRGYPISDHGSFTGTDVSDRSSTVKLFVGSVPRTATEEEIRPYFEQHGNVLEVALIKDKRTGQQQGCCFVKYATSKDADRAIRALHNQITLPGGTGPVQVRYADGERERIGTLEFKLFVGSLNKQATEKEVEEIFLQFGHVEDVYLMRDEYRQSRGCGFVKYSSKETAMAAIDGLNGTYTMRGCNQPLIVRFAEPKRPKPGESREMAPPVGLGSGPRFQASGPRPTSNFGDSSGDVSHTNPWRPATSRNVGPPSNTGIRGAGSDFSPKPGQATLPSNQGGPLGGYGVPPLNPLPVPGVSSSATLQQQNRAAGQHITPLKKPLHSPQGLPLPLRPQTNFPGAQAPLQNPYAYSSQLPTSQLPPQQNISRATAPQTPLNINLRPTTVSSATVQFPPRSQQQPLQKMQHPPSELAQLLSQQTQSLQATFQSSQQAISQLQQQVQSMQQPNQNLPLSQNGRAGKQQWAGSAIPRVASTTGSTPVSYVQTAAPAVSQSVGSVKCTWTEHTSPDGFKYYYNGLTGESKWEKPEEMIVFEREQQKQQQHQEKPTIQQSQTQLQPLQQQPQQVQQQYQGQQLQQPFYSSLYPTPGASHNTQYPSLPVGQNSQFPMSGIGQNAQDYARTHIPVGAASMNDISRTQQSRQSPQELMWKNKA
B2: Cleavage/Polyadenylation Specificity Factor 160 (CPSF160) (protein, UniProt Q9FGR0 1-1442)
chain: MSFAAYKMMHWPTGVENCASGYITHSLSDSTLQIPIVSVHDDIEAEWPNPKRGIGPLPNVVITAANILEVYIVRAQEEGNTQELRNPKLAKRGGVMDGVYGVSLELVCHYRLHGNVESIAVLPMGGGNSSKGRDSIILTFRDAKISVLEFDDSIHSLRMTSMHCFEGPDWLHLKRGRESFPRGPLVKVDPQGRCGGVLVYGLQMIILKTSQVGSGLVGDDDAFSSGGTVSARVESSYIINLRDLEMKHVKDFVFLHGYIEPVIVILQEEEHTWAGRVSWKHHTCVLSALSINSTLKQHPVIWSAINLPHDAYKLLAVPSPIGGVLVLCANTIHYHSQSASCALALNNYASSADSSQELPASNFSVELDAAHGTWISNDVALLSTKSGELLLLTLIYDGRAVQRLDLSKSKASVLASDITSVGNSLFFLGSRLGDSLLVQFSCRSGPAASLPGLRDEDEDIEGEGHQAKRLRMTSDTFQDTIGNEELSLFGSTPNNSDSAQKSFSFAVRDSLVNVGPVKDFAYGLRINADANATGVSKQSNYELVCCSGHGKNGALCVLRQSIRPEMITEVELPGCKGIWTVYHKSSRGHNADSSKMAADEDEYHAYLIISLEARTMVLETADLLTEVTESVDYYVQGRTIAAGNLFGRRRVIQVFEHGARILDGSFMNQELSFGASNSESNSGSESSTVSSVSIADPYVLLRMTDDSIRLLVGDPSTCTVSISSPSVLEGSKRKISACTLYHDKGPEPWLRKASTDAWLSSGVGEAVDSVDGGPQDQGDIYCVVCYESGALEIFDVPSFNCVFSVDKFASGRRHLSDMPIHELEYELNKNSEDNTSSKEIKNTRVVELAMQRWSGHHTRPFLFAVLADGTILCYHAYLFDGVDSTKAENSLSSENPAALNSSGSSKLRNLKFLRIPLDTSTREGTSDGVASQRITMFKNISGHQGFFLSGSRPGWCMLFRERLRFHSQLCDGSIAAFTVLHNVNCNHGFIYVTAQGVLKICQLPSASIYDNYWPVQKIPLKATPHQVTYYAEKNLYPLIVSYPVSKPLNQVLSSLVDQEAGQQLDNHNMSSDDLQRTYTVEEFEIQILEPERSGGPWETKAKIPMQTSEHALTVRVVTLLNASTGENETLLAVGTAYVQGEDVAARGRVLLFSFGKNGDNSQNVVTEVYSRELKGAISAVASIQGHLLISSGPKIILHKWNGTELNGVAFFDAPPLYVVSMNVVKSFILLGDVHKSIYFLSWKEQGSQLSLLAKDFESLDCFATEFLIDGSTLSLAVSDEQKNIQVFYYAPKMIESWKGLKLLSRAEFHVGAHVSKFLRLQMVSSGADKINRFALLFGTLDGSFGCIAPLDEVTFRRLQSLQKKLVDAVPHVAGLNPLAFRQFRSSGKARRSGPDSIVDCELLCHYEMLPLEEQLELAHQIGTTRYSILKDLVDLSVGTSFL
B3: SPT16 (protein, UniProt O82491 1-1074)
chain: MADSRNGNARAPPSGVPPKAGNTYSIDVKNFISRARALYEHWKKHSADLWGSADALAIATPPASDDLRYLKSSALNIWLLGYEFPDTIMVFTKKQIHFLCSRNKASLLEVVKKPAHDELKLDVIMHVKPKGDDGTGLMDAIFRAIRDLSRGDGNDSQVVGHIAREAPEGKLLETWTERLKNANFQFVDITGGLSDLFAVKDDTEVMSVKKAAYLAYSVMKNVVVPNLESAIDEEKDVTHSALMDLTEKAILEPTKASVKLKPENVDICYPPIFQSGGKFDLKPSAASNDELLTYDPASIIICAVGARYNSYCSNVARTYLIDATSLQSKAYEVLLKAHEAAIDALRSGRKINTVYQAALSVVEKNAPEFVDKLTKSAGTGIGLEFRESGLNINAKNDKVLRPKMAFNVSLGFQNLECESESRSKNKKFSLLLADTVLVTDQKPELLTKCSKSVKDVAYSFKEDEEEEKPRKKARTSGSENYITKTALRSDDHVVSKEELRKQHQAELARQKNEETARRLAGDSSGAGDSRSTAKTSADVVAYKNVNDMPHKELMIQVDTRNEAVLLPIYGSLVPFHVATIRTVSGNQDTNRNCYIRIIFNVPGTPFNPHDSNSLKNQGAIYLKEVSFRTKDSRHSSEVTQQIKTLRRQVMARESERAERATLVTQEKLQLAGNKFKPLRLSELWIRPPFSGRKKIPGTLEAHANGFRYSTTRPDERVDVLFANIKHAFFQPAEKEMITLLHFHLHNHIMVGTKKTKDVQFYVEVMDVVQSLGGGRRSAYDPDEIDEEQRERDRKNKINMDFNHFANRVNDMWQLPQFASLDLEFDQPLRELGFHGVPHKTSAFIIPTSSCLVELIEYPFLVVSLSEIEIVNLERVGFGQKNFDMAIIFKDFKKDVLRVDSVPTSSLEGIKEWLDTTDIKYYESKLNLNWRQILKTITDDPQSFIDDGGWEFLNLDGSDSESGGSEESDKGYEPSDVEVESESEDEASESESLVESDDDEEEDSEQESEEEKGKTWDELEREATNADREHGVESDSEEERKRRKMKAFGKSRPGTSGGGGSSSMKNMPPSKRKHR

molecular target: T1, SDG26-GFP (Arabidopsis thaliana); assay: affinity purification with mass spectrometry; cross-linked nuclear immunoprecipitation and mass spectrometry (CLNIP-MS) of SDG26 and of LD from transgenic Arabidopsis plants; Col-0 and a line expressing GFP alone as negative controls

Row | binding | Molecule
1 | binds | B1
2 | binds | B2
3 | binds | B3

molecular target: T1, SDG26-GFP (Arabidopsis thaliana); assay: as above; remark: another data set of the same source

Row | binding | Molecule
4 | binds | NRPB2 (from UniProt P38420 1-1188)
5 | binds | NRPB1 (from UniProt P18616 1-1839)
6 | binds | SPT5

These are yes or no findings as the source states them, for the method shown. Binding seen in cells or lysates may run through a third protein. Here binding means that the protein was enriched with, or labelled near, the bait; the list need not be complete. Tags and fused reporters may be left off the sequences shown.
